Measurements reported in publication PMC4577729, “7-(Pyrazol-4-yl)-3H-imidazo[4,5-b]pyridine-based derivatives for kinase inhibition: Co-crystallisation studies with Aurora-A reveal distinct differences in the orientation of the pyrazole N1-substituent” (Bioorganic & Medicinal Chemistry Letters, 2015).

System: 102-/105-kinase panel
Assay: Kinase selectivity profiling, whole panel
Format: biochemical

Cc1cc(CN2CCN(c3c(Br)cnc4[nH]c(-c5ccc(N6CCN(C)CC6)cc5)nc34)CC2)no1 [Compound 1, reference compound]
Gini coefficient (previously reported inhibitor, panel not stated): 0.560

Cc1cc(Cn2cc(-c3c(Cl)cnc4[nH]c(-c5cn(C)nc5C)nc34)cn2)no1 [Compound 14d]
Gini coefficient (105-kinase panel, 1 μM): 0.320
number of kinases inhibited by ⩾80% (105-kinase panel, 1 μM): 22

Cc1nn(C)cc1-c1nc2c(-c3cnn(Cc4ccccc4)c3)c(Cl)cnc2[nH]1 [Compound 7a]
Gini coefficient (102-kinase panel, 1 μM): 0.273
